Experimental data: PubChem BioAssay AID1259308 (NCATS, 2017)

Screen: 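Knock-downs that increase output of a recombinant reporter protein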 (primary screen)
System: human HEK293 embryonic kidney cells stably expressing firefly luciferase (HEK-CMV-Luc2-Hygro)
Reagents: single siRNA against human genes, 0.8 pmol siRNA per well
Timing: 72 h
Measured: 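Luciferase light (ONE-Glo) measured on one replicate plate set and viability (CellTiter-Glo) on the other, scaled to a negative control siRNA, with robust z-scores and luciferase per cell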
Reading the numbers: total luciferase, z-score and total luciferase, % of control: higher = more reporter protein produced; luciferase per cell, z-score: higher = more reporter output per viable cell; viable cells, % of control: higher = more viable cells
Hit rule: 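An siRNA counts as active if its total luciferase robust z-score exceeds 3; genes with two or more such siRNAs out of three were retested with fresh siRNAs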
Meaning of the calls: active = raised luciferase; inactive = no rise
Shown is a random part of about 59,000 deposited reagents. About 1,510 of all reagents (2.6%) count as active. 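Calls use total luciferase alone and ignore viability, so some active siRNAs may act by altering cell number.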 Reagents against one gene are numbered here.

| target gene | siRNA no. | total luciferase, z-score | total luciferase, % of control | luciferase per cell, z-score | viable cells, % of control | Outcome |
| --- | --- | --- | --- | --- | --- | --- |
| LOC387939 (retired record) | 1 | -2.32 | 35.7 | -2.32 | 73.5 | inactive |
| LOC387939 (retired record) | 2 | 0.349 | 88.8 | -0.259 | 106 | inactive |
| LOC387939 (retired record) | 3 | 0.0264 | 82.4 | 0.383 | 83.3 | inactive |
| TNS3 (tensin 3) | 1 | 0.0265 | 82.4 | -0.269 | 98.9 | inactive |
| TNS3 (tensin 3) | 2 | -2.25 | 37.2 | -1.62 | 63.7 | inactive |
| TNS3 (tensin 3) | 3 | -2.11 | 40 | -2.97 | 97.6 | inactive |
| TRIM36 (tripartite motif containing 36) | 1 | -0.504 | 71.9 | -0.55 | 92.8 | inactive |
| TRIM36 (tripartite motif containing 36) | 2 | -0.191 | 78.1 | 1.69 | 56 | inactive |
| TRIM36 (tripartite motif containing 36) | 3 | -1.04 | 61.2 | -0.663 | 81.4 | inactive |
| NAA40 (N-alpha-acetyltransferase 40, NatD catalytic subunit) | 1 | -0.296 | 76 | 0.453 | 75.4 | inactive |
| NAA40 (N-alpha-acetyltransferase 40, NatD catalytic subunit) | 2 | 0.425 | 90.3 | 0.475 | 89.1 | inactive |
| NAA40 (N-alpha-acetyltransferase 40, NatD catalytic subunit) | 3 | 0.667 | 95.2 | 1.54 | 70.9 | inactive |
| RANBP2 (RAN binding protein 2) | 1 | 2.04 | 122 | 2.2 | 76.7 | inactive |
| RANBP2 (RAN binding protein 2) | 2 | -0.321 | 75.5 | -0.00944 | 84.6 | inactive |
| RANBP2 (RAN binding protein 2) | 3 | 0.497 | 91.8 | 0.0293 | 102 | inactive |
| BCAR3 (BCAR3 adaptor protein, NSP family member) | 1 | -0.314 | 75.6 | -0.37 | 93.2 | inactive |
| BCAR3 (BCAR3 adaptor protein, NSP family member) | 2 | -0.96 | 62.8 | -0.963 | 90.4 | inactive |
| BCAR3 (BCAR3 adaptor protein, NSP family member) | 3 | -0.0353 | 81.2 | 0.61 | 77.3 | inactive |
| CNN2 (calponin 2) | 1 | 0.55 | 92.8 | 2.48 | 54 | inactive |
| CNN2 (calponin 2) | 2 | -1.28 | 56.4 | -0.504 | 72 | inactive |
| CNN2 (calponin 2) | 3 | -0.167 | 78.6 | 0.208 | 83.1 | inactive |
| HIPK3 (homeodomain interacting protein kinase 3) | 1 | 0.821 | 98.2 | -0.000455 | 110 | inactive |
| HIPK3 (homeodomain interacting protein kinase 3) | 2 | -1.94 | 43.4 | -0.473 | 54.9 | inactive |
| HIPK3 (homeodomain interacting protein kinase 3) | 3 | -1.67 | 48.7 | -2.43 | 103 | inactive |
| CCL25 (C-C motif chemokine ligand 25) | 1 | 0.0352 | 82.6 | -0.996 | 120 | inactive |
| CCL25 (C-C motif chemokine ligand 25) | 2 | 0.604 | 93.9 | -0.291 | 113 | inactive |
| CCL25 (C-C motif chemokine ligand 25) | 3 | -0.63 | 69.3 | -1.07 | 103 | inactive |
| BDKRB1 (bradykinin receptor B1) | 1 | 1.16 | 105 | 1.31 | 83.2 | inactive |
| BDKRB1 (bradykinin receptor B1) | 2 | 0.266 | 87.2 | -0.00196 | 97.5 | inactive |
| BDKRB1 (bradykinin receptor B1) | 3 | -1.7 | 48 | -1.61 | 81.8 | inactive |
| DPH5 (diphthamide biosynthesis 5) | 1 | -0.773 | 66.5 | -1.29 | 104 | inactive |
| DPH5 (diphthamide biosynthesis 5) | 2 | -0.442 | 73.1 | -1.21 | 112 | inactive |
| DPH5 (diphthamide biosynthesis 5) | 3 | -1.68 | 48.4 | -1.25 | 75.2 | inactive |
| METAP2 (methionyl aminopeptidase 2) | 1 | 0.449 | 90.8 | 1.05 | 76.9 | inactive |
| METAP2 (methionyl aminopeptidase 2) | 2 | 0.544 | 92.7 | 0.534 | 90 | inactive |
| METAP2 (methionyl aminopeptidase 2) | 3 | -0.694 | 68.1 | -0.706 | 91.6 | inactive |
| S100A16 (S100 calcium binding protein A16) | 1 | -1.26 | 56.8 | -1.54 | 95.3 | inactive |
| S100A16 (S100 calcium binding protein A16) | 2 | 1.12 | 104 | 0.935 | 90.9 | inactive |
| S100A16 (S100 calcium binding protein A16) | 3 | 1.71 | 116 | 1.72 | 82.4 | inactive |
| ADAMTS14 (ADAM metallopeptidase with thrombospondin type 1 motif 14) | 1 | 2.96 | 141 | 2.43 | 83.1 | inactive |
| ADAMTS14 (ADAM metallopeptidase with thrombospondin type 1 motif 14) | 2 | -0.709 | 67.8 | -0.849 | 94.7 | inactive |
| ADAMTS14 (ADAM metallopeptidase with thrombospondin type 1 motif 14) | 3 | 2.16 | 125 | 0.597 | 119 | inactive |
| OR13F1 (olfactory receptor family 13 subfamily F member 1) | 1 | 0.472 | 91.3 | 1.63 | 66.4 | inactive |
| OR13F1 (olfactory receptor family 13 subfamily F member 1) | 2 | 0.066 | 83.2 | 0.371 | 84.3 | inactive |
| OR13F1 (olfactory receptor family 13 subfamily F member 1) | 3 | 0.286 | 87.6 | -0.327 | 107 | inactive |
| CCDC78 (coiled-coil domain containing 78) | 1 | -1.09 | 60.1 | -0.807 | 83.1 | inactive |
| CCDC78 (coiled-coil domain containing 78) | 2 | 2.06 | 123 | 2.69 | 67.7 | inactive |
| CCDC78 (coiled-coil domain containing 78) | 3 | -0.263 | 76.7 | -0.348 | 93.9 | inactive |
| GDNF (glial cell derived neurotrophic factor) | 1 | 0.438 | 90.6 | 0.129 | 97.9 | inactive |
| GDNF (glial cell derived neurotrophic factor) | 2 | 0.205 | 86 | 1.31 | 68 | inactive |
| GDNF (glial cell derived neurotrophic factor) | 3 | 0.709 | 96 | 3.23 | 45.9 | inactive |
| TRIP12 (thyroid hormone receptor interactor 12) | 1 | -0.0288 | 81.3 | -0.274 | 97.7 | inactive |
| TRIP12 (thyroid hormone receptor interactor 12) | 2 | 1.75 | 117 | 0.736 | 107 | inactive |
| TRIP12 (thyroid hormone receptor interactor 12) | 3 | 1.24 | 107 | 0.324 | 109 | inactive |
| ZNF407 (zinc finger protein 407) | 1 | 0.819 | 98.2 | 0.329 | 101 | inactive |
| ZNF407 (zinc finger protein 407) | 2 | -1.19 | 58.2 | -0.836 | 81.1 | inactive |
| ZNF407 (zinc finger protein 407) | 3 | 0.332 | 88.5 | 0.797 | 80.2 | inactive |

A run of entries from the list above, as a working copy:
| target gene | siRNA no. | total luciferase, z-score | total luciferase, % of control | luciferase per cell, z-score | viable cells, % of control | Outcome |
| --- | --- | --- | --- | --- | --- | --- |
| DPH5 (diphthamide biosynthesis 5) | 1 | -0.773 | 66.5 | -1.29 | 104 | inactive |
| DPH5 (diphthamide biosynthesis 5) | 2 | -0.442 | 73.1 | -1.21 | 112 | inactive |
| DPH5 (diphthamide biosynthesis 5) | 3 | -1.68 | 48.4 | -1.25 | 75.2 | inactive |
| METAP2 (methionyl aminopeptidase 2) | 1 | 0.449 | 90.8 | 1.05 | 76.9 | inactive |
| METAP2 (methionyl aminopeptidase 2) | 2 | 0.544 | 92.7 | 0.534 | 90 | inactive |
| METAP2 (methionyl aminopeptidase 2) | 3 | -0.694 | 68.1 | -0.706 | 91.6 | inactive |
| S100A16 (S100 calcium binding protein A16) | 1 | -1.26 | 56.8 | -1.54 | 95.3 | inactive |
| S100A16 (S100 calcium binding protein A16) | 2 | 1.12 | 104 | 0.935 | 90.9 | inactive |
